Data as given in PubChem BioAssay AID248 (DTP/NCI, 2004).
The list shows only some results of the screen, not a fair sample: it gathers tests that were run many times, whatever their T/C, doses with no T/C, and many T/C values between a quarter and a half above the control. Other doses and runs of a compound stand elsewhere. T/C: endpoint of the treated group in % of that of the vehicle group. Some doses have a count of surviving animals in place of a T/C: the source holds a T/C of zero for them, seemingly a mark for toxic or unscored doses. Some survivor counts are full or nearly so, which does not show that the dose was tolerated: the source hardly ever lists a survival T/C far under the control, and the zero likely stands for such cases as well. Counts of survivors are from the toxicity check (mostly the fifth day) where no day follows; animals may have died later. Schedule codes are those of the source, read here as Q, the interval in days (D) or hours (H), X, the number of doses. Some molecules as drawn cover several salts, stereoisomers or complexes of the source; a dose is that of the sample tested. Where survival is the endpoint, the PubChem record calls one and a half times the control and up active, and a quarter to a half above the control has no call in these data; cut-offs in other NCI protocols can differ. Some T/C values are followed by the survivors on the day toxicity was checked, most often the fifth; without a count, all were alive then.

Test system: L1210 leukemia ip in BDF1 mice, survival T/C
Experiment: NCI In Vivo Anticancer Drug Screen. Data for tumor model L1210 Leukemia (intraperitoneal) in B6D2F1 (BDF1) mice
Settings: T/C endpoint: mean survival time, higher T/C = longer survival
[1] = dose: 150.0 mg/kg/injection, schedule: Q01DX001 (ip), vehicle: carboxymethylcellulose (CMC)
[2] = dose: 300.0 mg/kg/injection, schedule: Q01DX001 (ip), vehicle: carboxymethylcellulose (CMC)
[3] = dose: 400.0 mg/kg/injection, schedule: Q01DX009 (ip), vehicle: other
[4] = dose: 50.0 mg/kg/injection, schedule: Q01DX009 (ip), vehicle: Klucel (hydroxypropylcellulose) (HPC)
[5] = dose: 100.0 mg/kg/injection, schedule: Q01DX009 (ip), vehicle: Klucel (hydroxypropylcellulose) (HPC)
[6] = dose: 25.0 mg/kg/injection, schedule: Q04DX002 (ip), vehicle: saline
[7] = dose: 50.0 mg/kg/injection, schedule: Q04DX002 (ip), vehicle: saline
[8] = dose: 100.0 mg/kg/injection, schedule: Q04DX002 (ip), vehicle: saline
[9] = dose: 200.0 mg/kg/injection, schedule: Q04DX002 (ip), vehicle: saline
[10] = dose: 400.0 mg/kg/injection, schedule: Q04DX002 (ip), vehicle: saline
[11] = dose: 200.0 mg/kg/injection, schedule: Q01DX009 (ip), vehicle: saline
[12] = dose: 100.0 mg/kg/injection, schedule: Q04DX003 (ip), vehicle: saline
[13] = dose: 200.0 mg/kg/injection, schedule: Q04DX003 (ip), vehicle: saline
[14] = dose: 400.0 mg/kg/injection, schedule: Q04DX003 (ip), vehicle: saline
[15] = dose: 400.0 mg/kg/injection, schedule: Q01DX009 (ip), vehicle: saline with Tween-80
[16] = dose: 400.0 mg/kg/injection, schedule: Q04DX003 (ip), vehicle: Klucel (hydroxypropylcellulose) (HPC)
[17] = dose: 200.0 mg/kg/injection, schedule: Q01DX001 (ip), vehicle: saline
[18] = dose: 400.0 mg/kg/injection, schedule: Q01DX001 (ip), vehicle: saline
[19] = dose: 400.0 mg/kg/injection, schedule: Q04DX003 (ip), vehicle: saline with Tween-80
[20] = dose: 200.0 mg/kg/injection, schedule: Q04DX003 (ip), vehicle: Klucel (hydroxypropylcellulose) (HPC)
[21] = dose: 300.0 mg/kg/injection, schedule: Q01DX001 (ip), vehicle: saline

Cc1cc(CC#N)c(CC#N)cc1C
survivor count (dose: 200.0 mg/kg/injection, schedule: Q01DX001 (ip), vehicle: carboxymethylcellulose (CMC)): 2 of 6
survivor count (dose: 200.0 mg/kg/injection, schedule: Q01DX009 (ip), vehicle: carboxymethylcellulose (CMC)): 0 of 3
survivor count (dose: 200.0 mg/kg/injection, schedule: Q04DX003 (ip), vehicle: carboxymethylcellulose (CMC)): 0 of 6

C1CNC2CCCC2C1 (configuration not stated)
survivor count [1]: 4 of 6
survivor count [2]: 2 of 6

O=C(CCCCN1CCc2[nH]c3ccc(F)cc3c2C1)c1ccc(F)cc1
survivor count (dose: 100.0 mg/kg/injection, schedule: Q01DX009 (ip), vehicle: other): 0 of 6
survivor count (dose: 200.0 mg/kg/injection, schedule: Q01DX009 (ip), vehicle: other): 0 of 6
survivor count [3]: 0 of 6

O=C1C=CC(=O)N1CCc1ccccc1
survivor count (dose: 25.0 mg/kg/injection, schedule: Q01DX009 (ip), vehicle: Klucel (hydroxypropylcellulose) (HPC)): 6 of 6
survivor count (dose: 40.0 mg/kg/injection, schedule: Q04DX003 (ip), vehicle: saline with Tween-80): 0 of 6
survivor count [4]: 0 of 6
survivor count (dose: 80.0 mg/kg/injection, schedule: Q04DX003 (ip), vehicle: saline with Tween-80): 0 of 6
survivor count [5]: 1 of 6
survivor count (dose: 200.0 mg/kg/injection, schedule: Q01DX009 (ip), vehicle: Klucel (hydroxypropylcellulose) (HPC)): 0 of 6
survivor count (dose: 400.0 mg/kg/injection, schedule: Q01DX009 (ip), vehicle: Klucel (hydroxypropylcellulose) (HPC)): 0 of 6

CC(C)C(=O)[O][Pb]([CH3])([CH3])[CH3]
survivor count [6]: 2 of 3
survivor count [7]: 0 of 3
survivor count [8]: 0 of 3
survivor count [9]: 0 of 3
survivor count [10]: 0 of 3

O=C1/C(=C\c2ccccc2)COC/C1=C\c1ccccc1
T/C [11]: 126 % of control [5 of 6 alive]

CC[N+](C)(CC)CCCOC(=O)C(c1ccccc1)c1ccccc1
survivor count [12]: 1 of 6
survivor count [13]: 0 of 6
survivor count [14]: 0 of 6

OC1(c2ccccc2)CC2CC1c1ccccc12 (configuration not stated)
survivor count (dose: 50.0 mg/kg/injection, schedule: Q01DX001 (ip), vehicle: carboxymethylcellulose (CMC)): 4 of 4

COC(=O)C(CCSC)NC(=O)c1ccccc1 (configuration not stated)
survivor count [15]: 6 of 6

OC(c1cc(Nc2ccc(Cl)cc2)nc2ccccc12)C1CCCCN1 (configuration not stated)
survivor count [16]: 4 of 6

COC(=O)c1ccc(NCC(C)(C)N)cc1
survivor count (dose: 100.0 mg/kg/injection, schedule: Q01DX001 (ip), vehicle: saline): 0 of 6
survivor count [12]: 3 of 6
survivor count [17]: 0 of 6
survivor count [13]: 0 of 6
survivor count [18]: 0 of 6
survivor count [14]: 0 of 6

Cc1cc(O)ccc1C1=[N+](C)CC(C)S1 (configuration not stated)
survivor count [8]: 0 of 3
survivor count [9]: 0 of 3
survivor count [10]: 0 of 3

CC(C)CP(=O)(CC(C)C)C1CCCCC1
survivor count [19]: 2 of 6

FC(F)(F)c1ccc2c(c1)N(CCCNCCN1CCOCC1)c1ccccc1S2
survivor count (dose: 50.0 mg/kg/injection, schedule: Q01DX009 (ip), vehicle: saline): 2 of 6
survivor count [12]: 1 of 4
survivor count [13]: 0 of 4
survivor count [14]: 0 of 4

CN(C1CCCCC1)C1CCCCC1
survivor count [4]: 0 of 6
survivor count [5]: 0 of 6
survivor count (dose: 100.0 mg/kg/injection, schedule: Q04DX003 (ip), vehicle: Klucel (hydroxypropylcellulose) (HPC)): 0 of 6
survivor count [20]: 0 of 6
survivor count [21]: 1 of 6
survivor count [16]: 0 of 6

C[N+]1(C)CCOC(O)(c2ccc(-c3ccccc3)cc2)C1 (configuration not stated)
survivor count [6]: 0 of 3
survivor count [7]: 0 of 3
survivor count [8]: 0 of 3

CC12CC3(C)CC(C)(C1)CC(NC(=O)N(CCCl)N=O)(C2)C3
T/C (dose: 10.0 mg/kg/injection, schedule: Q01DX001 (ip), vehicle: other): 137 % of control
T/C (dose: 30.0 mg/kg/injection, schedule: Q01DX001 (ip), vehicle: other): 143 % of control
T/C (dose: 40.0 mg/kg/injection, schedule: Q01DX001 (ip), vehicle: other): 148 % of control
T/C (dose: 60.0 mg/kg/injection, schedule: Q01DX001 (ip), vehicle: other): 143 % of control
T/C (dose: 93.0 mg/kg/injection, schedule: Q01DX001 (ip), vehicle: other): 149 % of control

CC1CCCC(CN=Cc2ccccc2O)[N-]1.CC1CCCC(CN=Cc2ccccc2O)[N-]1.[Ni+2] (configuration not stated)
survivor count (dose: 200.0 mg/kg/injection, schedule: Q04DX003 (ip), vehicle: saline with Tween-80): 6 of 6
survivor count [19]: 1 of 6

CCCCCCCCCCCCCCCC(=O)N(CCCN)CCCN(CCCN)C(=O)CCCCCCCCCCCCCCC
survivor count [13]: 3 of 6
survivor count [14]: 0 of 6

CC(CN(C)C)CN1c2ccccc2CCc2ccccc21 (configuration not stated)
survivor count (dose: 70.0 mg/kg/injection, schedule: Q01DX009 (ip), vehicle: saline): 1 of 6
survivor count (dose: 140.0 mg/kg/injection, schedule: Q04DX003 (ip), vehicle: saline): 1 of 4
survivor count (dose: 280.0 mg/kg/injection, schedule: Q04DX003 (ip), vehicle: saline): 0 of 4

CNCCOc1ccccc1
survivor count (dose: 200.0 mg/kg/injection, schedule: Q01DX009 (ip), vehicle: saline with Tween-80): 3 of 6
survivor count [19]: 0 of 6

N.N.N.N.N.N#CN=C(N)N.[Co+3].[O-][Cl+3]([O-])([O-])[O-]
survivor count [9]: 0 of 3
survivor count [10]: 0 of 3

CC(C)C[C@H]1C(=O)N2CCC[C@H]2[C@]2(O)O[C@](NC(=O)[C@@H]3C=C4c5cccc6[nH]c(Br)c(c56)C[C@H]4N(C)C3)(C(C)C)C(=O)N12
survivor count [15]: 0 of 6

CC1(C(Cl)Cl)CCCCC1=O (configuration not stated)
survivor count [17]: 3 of 6
survivor count [18]: 2 of 6

Nc1cc(OCc2ccccc2)cc(OCc2ccccc2)c1
survivor count (dose: 200.0 mg/kg/injection, schedule: Q01DX009 (ip), vehicle: water): 0 of 6
survivor count (dose: 400.0 mg/kg/injection, schedule: Q01DX009 (ip), vehicle: water): 0 of 6

CCCCCCCCCCCCNC(=O)CC(O)(CC(=O)O)C(=O)O (configuration not stated)
survivor count [20]: 1 of 6
survivor count [16]: 0 of 6

C[n+]1cccc(O)c1
T/C [12]: 128 % of control

CCN1Cc2ccc(O)cc2C1
survivor count [11]: 5 of 6
survivor count [13]: 5 of 6
survivor count (dose: 400.0 mg/kg/injection, schedule: Q01DX009 (ip), vehicle: saline): 0 of 6
survivor count [14]: 0 of 6

CSc1cc(C)c(O)c(C)c1
survivor count [3]: 5 of 6

O=[N+]([O-])c1cc(Cl)[n+]([O-])c(Cl)c1
survivor count [1]: 0 of 6
survivor count [2]: 1 of 6

NC(=S)N/N=C\C(=N/NC(N)=S)C(O)CO (configuration not stated)
survivor count [21]: 2 of 6
